Reference: patent US6548060 (dated 2003)
Results are given in words; binding and its absence hold for the method and conditions named. For some assays here: In cells and extracts the contact can be indirect. Some results given as binding are weak or reduced against the parent protein; the word gives no strength.

Key:
[1] = molecular target: ASK1 (apoptosis signal-regulating kinase), full-length (UniProt Q99683); assay: co-immunoprecipitation with anti-Daxx antibody from 293 cells (FIG. 4A)
[2] = molecular target: T1, N-terminal 649 aa of ASK1 (UniProt Q99683); assay: co-immunoprecipitation with anti-HA antibody from 293 cells, HA-ASK1-N (FIG. 3B)
T1 sequence (looked up): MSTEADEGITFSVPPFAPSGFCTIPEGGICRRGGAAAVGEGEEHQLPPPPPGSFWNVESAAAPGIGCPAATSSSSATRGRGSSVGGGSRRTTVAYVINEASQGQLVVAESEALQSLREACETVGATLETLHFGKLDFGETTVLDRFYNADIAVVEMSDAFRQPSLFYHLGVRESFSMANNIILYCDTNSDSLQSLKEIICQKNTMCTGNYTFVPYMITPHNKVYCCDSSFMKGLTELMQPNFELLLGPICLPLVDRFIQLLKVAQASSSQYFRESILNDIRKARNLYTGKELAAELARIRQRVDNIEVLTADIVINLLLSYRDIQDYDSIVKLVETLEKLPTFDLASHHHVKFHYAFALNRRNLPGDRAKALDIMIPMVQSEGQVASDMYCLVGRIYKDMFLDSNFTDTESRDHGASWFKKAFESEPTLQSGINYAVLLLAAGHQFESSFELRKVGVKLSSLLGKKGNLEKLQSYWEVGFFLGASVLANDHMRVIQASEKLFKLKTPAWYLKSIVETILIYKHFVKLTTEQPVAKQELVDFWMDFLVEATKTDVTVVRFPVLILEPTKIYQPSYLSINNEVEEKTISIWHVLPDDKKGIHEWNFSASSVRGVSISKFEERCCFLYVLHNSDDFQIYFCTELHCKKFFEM

[3] = molecular target: ASK1 (apoptosis signal-regulating kinase), full-length (UniProt Q99683); assay: co-immunoprecipitation with anti-HA antibody from 293 cells, HA-ASK1-F (FIG. 3B)
[4] = molecular target: ASK1 (apoptosis signal-regulating kinase), full-length (UniProt Q99683); assay: co-immunoprecipitation with anti-HA antibody from 293 cells (FIG. 3A)
[5] = molecular target: ASK1 (apoptosis signal-regulating kinase), full-length (UniProt Q99683); assay: summary of the experiments in the legend of FIG. 1
[6] = molecular target: ASK1 (apoptosis signal-regulating kinase), full-length (UniProt Q99683); assay: in vitro pull-down, data not shown
[7] = molecular target: ASK1 (apoptosis signal-regulating kinase), full-length (UniProt Q99683); assay: yeast two-hybrid, B42-Daxx-C with LexA-ASK1 (FIG. 2A)

## human Daxx, full-length (from UniProt Q9UER7 1-740)
[1]
  binding: binds

B1: human glutaminyl-tRNA synthetase, full-length (enzyme, UniProt P47897 1-775, looked up)
chain: MAALDSLSLFTSLGLSEQKARETLKNSALSAQLREAATQAQQTLGSTIDKATGILLYGLASRLRDTRRLSFLVSYIASKKIHTEPQLSAALEYVRSHPLDPIDTVDFERECGVGVIVTPEQIEEAVEAAINRHRPQLLVERYHFNMGLLMGEARAVLKWADGKMIKNEVDMQVLHLLGPKLEADLEKKFKVAKARLEETDRRTAKDVVENGETADQTLSLMEQLRGEALKFHKPGENYKTPGYVVTPHTMNLLKQHLEITGGQVRTRFPPEPNGILHIGHAKAINFNFGYAKANNGICFLRFDDTNPEKEEAKFFTAICDMVAWLGYTPYKVTYASDYFDQLYAWAVELIRRGLAYVCHQRGEELKGHNTLPSPWRDRPMEESLLLFEAMRKGKFSEGEATLRMKLVMEDGKMDPVAYRVKYTPHHRTGDKWCIYPTYDYTHCLCDSIEHITHSLCTKEFQARRSSYFWLCNALDVYCPVQWEYGRLNLHYAVVSKRKILQLVATGAVRDWDDPRLFTLTALRRRGFPPEAINNFCARVGVTVAQTTMEPHLLEACVRDVLNDTAPRAMAVLESLRVIITNFPAAKSLDIQVPNFPADETKGFHQVPFAPIVFIERTDFKEEPEPGFKRLAWGQPVGLRHTGYVIELQHVVKGPSGCVESLEVTCRRADAGEKPKAFIHWVSQPLMCEVRLYERLFQHKNPEDPTEVPGGFLSDLNLASLHVVDAALVDCSVALAKPFDKFQFERLGYFSVDPDSHQGKLVFNRTVTLKEDPGKV
[2]
  binding: binds
[3]
  binding: binds
[4]
  binding: binds

B2: C-terminal 539 aa catalytic domain of human glutaminyl-tRNA synthetase (enzyme, UniProt P47897 237-775, looked up)
chain: NYKTPGYVVTPHTMNLLKQHLEITGGQVRTRFPPEPNGILHIGHAKAINFNFGYAKANNGICFLRFDDTNPEKEEAKFFTAICDMVAWLGYTPYKVTYASDYFDQLYAWAVELIRRGLAYVCHQRGEELKGHNTLPSPWRDRPMEESLLLFEAMRKGKFSEGEATLRMKLVMEDGKMDPVAYRVKYTPHHRTGDKWCIYPTYDYTHCLCDSIEHITHSLCTKEFQARRSSYFWLCNALDVYCPVQWEYGRLNLHYAVVSKRKILQLVATGAVRDWDDPRLFTLTALRRRGFPPEAINNFCARVGVTVAQTTMEPHLLEACVRDVLNDTAPRAMAVLESLRVIITNFPAAKSLDIQVPNFPADETKGFHQVPFAPIVFIERTDFKEEPEPGFKRLAWGQPVGLRHTGYVIELQHVVKGPSGCVESLEVTCRRADAGEKPKAFIHWVSQPLMCEVRLYERLFQHKNPEDPTEVPGGFLSDLNLASLHVVDAALVDCSVALAKPFDKFQFERLGYFSVDPDSHQGKLVFNRTVTLKEDPGKV
[5]
  binding: binds
[6]
  binding: binds
[4]
  binding: binds

B3: C-terminal 137 aa peptide of human Daxx (G604-D740) (other, UniProt Q9UER7 604-740, looked up)
chain: GAGMVSSTSFNGGVSPHNWGDSGPPCKKSRKEKKQTGSGPLGNSYVERQRSVHEKNGKKICTLPSPPSPLASLAPVADSSTRVDSPSHGLVTSSLCIPSPARLSQTPHSQPPRPGTCKTSVATQCDPEEIIVLSDSD
notes: range 604-740; B42 fusion in yeast two-hybrid; His fusion (pET28a), purified, in the in vitro pull-down; also called Daxx-C; B42-Daxx-C
[7]
  binding: binds
